Experimental data: patent US4725645 (dated 1988)

Assay: general procedure: solution-phase peptide synthesis
Conditions: trifluoroacetic acid salt

[Met^5 ]-enkephalin
step yield (coupling step): 95%
isolated yield (whole synthesis, total yield): 60%
